Among the data in PubChem BioAssay AID2685 (National Center for Advancing Translational Sciences (NCATS), 2010) are cell number change and AC50 values, retold here.

The list shows a part of the results. These are further read-outs of the screen, such as a control signal, another cell line or another target. No call is given for them. The list favours compounds with an active or inconclusive main result. Potencies come from curve fits of mixed quality, noted in brackets.

This experiment can be described thus: qHTS Assay for Lipid Storage Modulators in Drosophila S3 Cells.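 As to cell number change: cells counted by Cell Tracker Red CMTPX staining in the red channel.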 To be noted: BODIPY lipid droplet fluorescence, 18-24 h; for cell number change: measured here: cell count max response, cells fed with added oleic acid. A digest of the protocol:
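Laser-scanning cytometry quantifies lipid droplet accumulation (500–530 nm total intensity; droplet/cell object ratio) in oleic acid-fed (400 uM added) Drosophila S3 cells treated with a concentration series. 20 uM Triacsin C defined 100% inhibition.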
For orientation: In qHTS, concentration-response curves come from the screen itself.

[1] abbreviates: measured here: lipid fluorescence (Fed channel) AC50, cells fed with added oleic acid.
[2] abbreviates: measured here: cell number channel AC50, cells fed with added oleic acid.

Usually AC50 stands for the concentration at which the activity in the assay is half-maximal. The low end stands for activity at low concentration, the high end for activity only at high concentration. As for `CCOC(=O)c1cncc(C#CCOC(=O)Nc2ccc(OC(F)(F)F)cc2)c1`, the cell number change stood at 5.15%. Also, the AC50 under setting [1] is 2.31 µM [rising, single point].

In the case of `Cc1oc2c(C)c3oc(=O)c4c(c3cc2c1C)CCC4`, the cell number change is 9.84%.

As to `CC(C)c1ccc(NC(=O)CN2C(=O)NC(Cc3c[nH]c4ccccc34)C2=O)cc1` (configuration not stated), the cell number change was -7.16%. For the same molecule, under setting [1], the AC50 is 1.03 µM [rising, partial curve].

Regarding `CCN(Cc1cc(=O)n2ccsc2n1)Cc1nc2cc(OC)c(OC)cc2c(=O)[nH]1`, the cell number change was 24.8%. Further, the concentration at half-maximal activity (AC50) under setting [1] is 29.1 µM [rising, single point].

In the case of `COc1ccc([C@@H]2[C@@H]3C(=O)N(C(C)(C)C)C(=O)[C@@H]3[C@]3(Cc4ccccc4)C(=O)N(c4ccc(OC)cc4)C(=O)N23)cc1`, the cell number change was 18.6%. Further, the half-maximal activity concentration (AC50) under setting [1] was 2.31 µM [rising, single point].

`CC(C)(C)NC(=O)COC(=O)CCC(=O)c1ccc(F)cc1`: the cell number change was -40.2%.

For the molecule `COc1ccccc1CCC(=O)N(C)CC(=O)Nc1ccc(Cl)c(C(F)(F)F)c1`, under setting [1], the AC50 is 0.58 µM [falling, single point].

On to `O=C(N1CCN(c2ccccc2F)CC1)C1(S(=O)(=O)c2ccc(Cl)cc2)CC1`, for which the cell number change is -17.5%.

`O=C(Nc1ccc(OC(F)(F)F)cc1)Nc1cccc([N+](=O)[O-])c1`: the cell number change is -78.9%. The AC50 under setting [2] was 4.61 µM [falling, full curve]. In addition, under setting [1], the AC50 is 3.26 µM [falling, full curve].

For `CCOc1ccc(NC(=O)C2CSC(c3ccncc3)=N2)cc1` (configuration not stated), the cell number change stood at 11.1%. In addition, under setting [1], the AC50 is 0.092 µM [rising, full curve, poor fit].

For `Cc1nn(Cc2ccc(Cl)cc2)c(Cl)c1/C=N/NC(=O)CNc1ccccc1F`, the cell number change was -5.07%.

For `O=C(CNCc1ccccc1Cl)NCc1ccco1`, the AC50 under setting [1] was 2.59 µM [falling, single point].

For `CCCCNC(=O)COC(=O)c1cc(C)nc2ccccc12`, the cell number change was -28.2%. For the same molecule, the AC50 under setting [1] was 0.082 µM [falling, full curve, poor fit].

Consider `CC1N(C(=O)N2CCOCC2)CCN1S(=O)(=O)c1ccc(Cl)cc1` (configuration not stated), for which the cell number change is -3.95%.

On to `CCN(CC(=O)Nc1ccc(NC(C)=O)cc1)C(=O)/C=C/c1cn(-c2ccccc2)nc1-c1cccs1`, for which the AC50 under setting [2] was 2.06 µM [rising, partial curve].

For the molecule `CCOC(=O)c1cnn(-c2ccccc2)c1NC(=O)CN1CCCCC1`, the cell number change is -7.35%.

As to `CCNC(=S)N/N=C/c1cccc(C)c1`, the cell number change is 0.0804%. Moreover, under setting [1], the half-maximal activity concentration (AC50) was 2.59 µM [rising, partial curve].

For the molecule `Cc1cccc(C)c1NC(=O)CNC(=O)c1ccc(NS(=O)(=O)c2ccc3[nH]c(=O)[nH]c3c2)cc1`, the cell number change came out at 102%.

Consider `Cc1cccc(Nc2nc(N)c([N+](=O)[O-])c(N3CCCC(C)C3)n2)c1` (configuration not stated), for which the cell number change was -38%. Moreover, the AC50 under setting [2] is 11.6 µM [falling, partial curve].

As to `Cc1cccc(N2C(=O)C3C4C=CC(CC4)C3C2=O)c1` (configuration not stated), the cell number change was -6.82%. Moreover, under setting [1], the half-maximal activity concentration (AC50) was 23.1 µM [rising, single point].

`COc1cccc(C2C(C(=O)c3cc4cccc(OC)c4o3)=C(O)C(=O)N2c2cc(C)on2)c1OC` (configuration not stated): under setting [1], the AC50 was 6.51 µM [rising, single point].

As for `CCOC(=O)C1=C(C)N(C2CCCCC2)C(=O)C1`, the cell number change is -2.71%. Moreover, under setting [1], the AC50 is 5.17 µM [falling, single point].

`O=C(Nc1nnc(SCc2ccccc2F)s1)C1=COCCO1`: the cell number change is -11.9%. For the same molecule, the AC50 under setting [1] was 29.1 µM [falling, single point].

Turning to `CCn1cc(C(=O)N2CCCC2)c(=O)c2cc(S(=O)(=O)N3CC(C)CC(C)C3)ccc21` (configuration not stated), the cell number change stood at 10.9%. Besides, the AC50 under setting [1] is 0.103 µM [rising, full curve, poor fit].

In the case of `Cc1ccc(C)c(S(=O)(=O)NCCCN2CCOCC2)c1`, the cell number change worked out at 26.7%. Under setting [1], the concentration at half-maximal activity (AC50) was 5.8 µM [rising, single point].

In the case of `COCCSc1nnc(NC(=O)C2CCN(C(=O)c3ccco3)CC2)s1`, the cell number change is -9.21%. For the same molecule, the AC50 under setting [1] was 5.62 µM [falling, single point].

As for `CCCc1nc(NC2CCCCC2)c(C#N)c2c1COC(C)(C)C2`, the cell number change amounted to 0.678%. Also, under setting [1], the half-maximal activity concentration (AC50) is 18.4 µM [rising, single point].

Turning to `Cc1cn(S(=O)(=O)c2ccc(Br)c3ccccc23)cn1`, the cell number change is 0.512%. Under setting [2], the AC50 was 0.116 µM [falling, full curve, poor fit].

As for `COc1ccc(C)cc1NC(=O)CCCN1C(=O)CCC1=O`, the cell number change was -107%. Under setting [2], the AC50 was 18.4 µM [falling, partial curve].

As for `CCN(CC)c1cc(C)c2cc(NC(=O)CNC(C)=O)ccc2n1`, the cell number change is -10.3%. Besides, the concentration at half-maximal activity (AC50) under setting [1] was 18.4 µM [rising, single point].

On to `O=C(COc1ccc(S(=O)(=O)NCc2ccccc2)cc1Cl)NCc1ccncc1`, for which the cell number change is -0.427%. Moreover, the AC50 under setting [1] was 9.2 µM [falling, partial curve].

As for `CCc1nc2ccc(C(=O)O)cc2nc1CC`, the cell number change was 4.49%. Under setting [1], the AC50 was 0.00517 µM [falling, full curve, poor fit].

Take `CCC(C)(C)NC(=O)C(c1ccc(OC)cc1)N(CCOC)C(=O)CCC(=O)Nc1nccs1` (configuration not stated): the cell number change was -49.6%. Also, under setting [2], the half-maximal activity concentration (AC50) is 4.11 µM [falling, full curve]. Besides, under setting [1], the AC50 is 4.61 µM [falling, full curve].

On to `COC(=O)CSc1nc2ncccc2[nH]1`, for which the cell number change was -17.1%. In addition, under setting [1], the half-maximal activity concentration (AC50) is 20.6 µM [falling, partial curve].

On to `COc1ccc(NC(=O)c2nc(S(=O)(=O)Cc3cccc(C)c3)ncc2Cl)c(OC)c1`, for which the cell number change came to 84.5%. Moreover, under setting [2], the AC50 was 29.1 µM [rising, single point]. Further, the AC50 under setting [1] was 14.6 µM [falling, partial curve, poor fit].

Take `N=C1S/C(=C\c2ccco2)C(=O)N1c1ccc2c(c1)OCO2`: under setting [1], the AC50 was 4.11 µM [rising, full curve, poor fit].

On to `COC(=O)c1ccc(N2CCN(C)CC2)c(NC(=O)COc2ccc(C)cc2)c1`, for which the cell number change was -25.4%. The AC50 under setting [1] is 6.51 µM [rising, single point].

For the molecule `COc1ccc(N2CCN(C(=O)c3cccc(NC(=O)c4ccco4)c3)CC2)cc1`, the cell number change amounted to 27.5%. Also, under setting [1], the AC50 was 8.2 µM [rising, partial curve, poor fit].

With `Cc1ccc(C2=CSC3=NS(=O)(=O)CCN23)cc1`, the cell number change was -18.1%. Besides, the AC50 under setting [1] is 6.51 µM [falling, partial curve].

Consider `COc1ccc(Cc2n[nH]c(=S)n2NC(=O)Nc2ccc(Cl)c(Cl)c2)cc1`, for which the cell number change is -30.5%. For the same molecule, the AC50 under setting [2] is 29.1 µM [falling, single point].

On to `O=C(O)c1ccc(N/N=C/c2cn(-c3ccccc3)nc2-c2cccs2)cc1`, for which the AC50 under setting [1] is 0.731 µM [rising, single point].

Turning to `C=CCSc1n[nH]c(-c2ccc(OCCCC)cc2)n1`, under setting [1], the concentration at half-maximal activity (AC50) is 0.146 µM [falling, full curve].

Regarding `CCN(CC)CCOC(=O)c1ccc(NC(=O)CNC(=O)C2CCCCC2)cc1`, the cell number change was 77.9%. Besides, the AC50 under setting [2] was 4.11 µM [rising, full curve]. Also, the AC50 under setting [1] was 13 µM [rising, partial curve].

For the molecule `Cc1ccc(N(CN2CCCC2=O)C(=O)c2ccc(OC(C)C)cc2)cc1`, the cell number change is -17.1%. Also, the AC50 under setting [1] was 6.51 µM [falling, partial curve].

For `Cc1ccc(S(=O)(=O)NCc2nc3ccccc3c(=O)n2N)cc1`, the cell number change is -15.1%. Also, the AC50 under setting [1] is 0.731 µM [falling, full curve, poor fit].

Turning to `COc1ccc(Br)cc1CNc1ccc(S(N)(=O)=O)cc1`, the AC50 under setting [1] was 10.3 µM [rising, partial curve].

For the molecule `Cc1c(NC(=O)C(C)OC(=O)CNC(=O)c2ccccc2)c(=O)n(-c2ccccc2)n1C` (configuration not stated), the cell number change was -24.7%. Moreover, under setting [2], the AC50 is 0.164 µM [falling, full curve, poor fit]. In addition, the AC50 under setting [1] was 0.00517 µM [falling, full curve].

Take `O=C(C(=C1NCCN1)n1cncn1)c1ccccc1`: the cell number change amounted to 36.3%. The AC50 under setting [2] is 23.1 µM [rising, single point]. Besides, the AC50 under setting [1] was 18.4 µM [rising, partial curve].

As for `CC(=O)Nc1nc(-c2ccc(Cl)cc2)nc(C)c1C(C)=O`, the AC50 under setting [2] is 0.00461 µM [rising, full curve, poor fit].

With `CCCCN(CCCC)C(=O)c1ccccc1NC(=O)CN1C(=O)c2ccccc2C1=O`, the cell number change was 16.1%.

In the case of `CN(Cc1nccn1C)C(=O)C1CCC(=O)N(Cc2cccc(C(F)(F)F)c2)C1` (configuration not stated), the cell number change came out at 2.29%. In addition, under setting [1], the AC50 is 3.66 µM [falling, single point].

As to `Cc1cc(C=C(C#N)C#N)c(C)n1-c1ccccc1`, the cell number change came out at 4.04%.

For `CC(=O)Nc1ccc(S(=O)(=O)NCCc2ccc(S(N)(=O)=O)cc2)cc1`, the cell number change came to 8.94%.

`Cn1ncc2c(Nc3cccc(C(=O)O)c3)ncnc21`: the cell number change was 19%. The half-maximal activity concentration (AC50) under setting [1] was 18.4 µM [rising, single point].

For the molecule `CCCC1COC(Cn2cncn2)(c2ccc(C)cc2)O1` (configuration not stated), the cell number change is -0.0718%. Besides, under setting [2], the AC50 was 0.13 µM [rising, full curve, poor fit]. For the same molecule, under setting [1], the AC50 is 0.146 µM [rising, full curve].

In the case of `COc1cc(C)c(S(=O)(=O)n2nnc3ccccc32)cc1C`, the cell number change is -80.4%. Moreover, under setting [2], the AC50 was 5.8 µM [falling, full curve]. The AC50 under setting [1] was 5.8 µM [falling, full curve].

On to `CCc1ccc(C2CC(c3ccc(Cl)cc3)=NNC2=O)cc1` (configuration not stated), for which the cell number change was -12.9%.

On to `C=C1C(=O)O[C@H]2[C@H]1[C@@H](O)CC(=C)[C@@H]1CC(=O)[C@@H](C)[C@H]21`, for which the cell number change is -26.5%. Also, the AC50 under setting [1] is 29.1 µM [falling, single point].

As to `CC(O)Cc1nsc(NC(=O)c2cccs2)n1` (configuration not stated), the cell number change is -18.9%. In addition, the AC50 under setting [1] was 0.461 µM [falling, partial curve, poor fit].

As for `CCOc1ccccc1NC(=O)CN1CCCCCC1`, the cell number change was -0.275%. Further, the AC50 under setting [1] was 2.91 µM [falling, full curve, poor fit].

As to `Cc1cc(C)nc(NC2=NCC(=O)N2c2ccc(F)c(Cl)c2)n1`, the cell number change was determined as 19.2%.

Regarding `CC(=O)Oc1ccc(C(=O)Nc2cccc(C(=O)NC(C)(C)C)c2)cc1`, the cell number change worked out at 7.51%.

In the case of `CCOc1ccc2nc(NC(=O)C(NS(=O)(=O)c3cccc4nsnc34)C(C)C)sc2c1` (configuration not stated), the cell number change was -38.4%. In addition, the AC50 under setting [2] is 29.1 µM [falling, single point].
